Source: PubChem BioAssay AID1224826 (NIAID, 2016)

Test: 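Genes that change LPS-induced Tnf promoter activity in mouse macrophages when knocked down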 (primary screen)
System: RAW264.7 G9 macrophages from mouse bearing reporters for p65 (GFP) and the Tnf promoter (mCherry)
Reagents: siRNA pool against mouse genes, 100 nM
Timing: 16 h of LPS stimulation, after 2 days of siRNA transfection
Treatment: bacterial lipopolysaccharide (Salmonella minnesota R595), 10 ng/ml
Detection: 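Nuclear mCherry signal of the Tnf promoter reporter measured by imaging after background removal, scaled to each plate median and turned into robust z-scores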
Direction: Tnf reporter robust z-score: higher = stronger Tnf promoter reporter signal after LPS
Call rule: 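Called active when robust z-score is at most -1.3, matching the median of the Tlr4 knock-down control, or over 3; control wells and wells with under 50 cells never active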
Calls: active = Tnf reporter clearly lowered or raised; inactive = no clear change in Tnf reporter
The whole screen tested about 17,000 reagents; below is a random part of them. In the full data, about 1,110 (6.6%) got an active call. 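Active means lowered or raised reporter signal; replicate intensities are raw and not normalised per plate.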 Unmarked entries are inactive. Not all columns of the deposit are shown. Reagent sequences are not shown.

Phyhip | Tnf reporter robust z-score: -1.06; fewer than 50 cells in well: enough cells in well
Padi1 | fewer than 50 cells in well: fewer than 50 cells per well; well left out of calls
Padi4 | fewer than 50 cells in well: fewer than 50 cells per well; well left out of calls
Mfng | Tnf reporter robust z-score: -0.27; fewer than 50 cells in well: enough cells in well
Nif3l1 | Tnf reporter robust z-score: -0.36; fewer than 50 cells in well: enough cells in well
Map6d1 | Tnf reporter robust z-score: -0.12; fewer than 50 cells in well: enough cells in well
Ccdc73 | fewer than 50 cells in well: fewer than 50 cells per well; well left out of calls
Mrpl46 | Tnf reporter robust z-score: -0.06; fewer than 50 cells in well: enough cells in well
V1rd19 | Tnf reporter robust z-score: 5.46 (active); fewer than 50 cells in well: enough cells in well
Drc5 | Tnf reporter robust z-score: -1.06; fewer than 50 cells in well: enough cells in well
Pax2 | Tnf reporter robust z-score: -0.76; fewer than 50 cells in well: enough cells in well
Cartpt | Tnf reporter robust z-score: 0.71; fewer than 50 cells in well: enough cells in well
Fst | Tnf reporter robust z-score: 0.19; fewer than 50 cells in well: enough cells in well

Sorted by “Tnf reporter robust z-score” (ascending): 4 of the entries above.
Drc5 | Tnf reporter robust z-score: -1.06; fewer than 50 cells in well: enough cells in well
Pax2 | Tnf reporter robust z-score: -0.76; fewer than 50 cells in well: enough cells in well
Mrpl46 | Tnf reporter robust z-score: -0.06; fewer than 50 cells in well: enough cells in well
V1rd19 | Tnf reporter robust z-score: 5.46 (active); fewer than 50 cells in well: enough cells in well

The list goes on.
Kif3a | Tnf reporter robust z-score: -0.02; fewer than 50 cells in well: enough cells in well
Selenow | Tnf reporter robust z-score: 1.81; fewer than 50 cells in well: enough cells in well
Cavin3 | Tnf reporter robust z-score: -0.68; fewer than 50 cells in well: enough cells in well
Cutc | Tnf reporter robust z-score: -0.91; fewer than 50 cells in well: enough cells in well
Psma5 | fewer than 50 cells in well: fewer than 50 cells per well; well left out of calls
Tmem50a | fewer than 50 cells in well: fewer than 50 cells per well; well left out of calls
Aars1 | Tnf reporter robust z-score: 0.63; fewer than 50 cells in well: enough cells in well
Slc8a2 | fewer than 50 cells in well: fewer than 50 cells per well; well left out of calls
Grwd1 | Tnf reporter robust z-score: 1.8; fewer than 50 cells in well: enough cells in well
Blzf1 | Tnf reporter robust z-score: 1.46; fewer than 50 cells in well: enough cells in well
Myoz1 | Tnf reporter robust z-score: -1.07; fewer than 50 cells in well: enough cells in well
Asb7 | Tnf reporter robust z-score: -1.41 (active); fewer than 50 cells in well: enough cells in well
Nup37 | Tnf reporter robust z-score: 0.47; fewer than 50 cells in well: enough cells in well
Fam171a2 | Tnf reporter robust z-score: -0.94; fewer than 50 cells in well: enough cells in well
